Test results taken from paper PMC9655520.
These are yes or no findings as the source states them, for the method shown. Binding seen in cells or lysates may run through a third protein. Some results given as binding are weak or reduced against the parent protein; the word gives no strength. Tags and fused reporters may be left off the sequences shown.

By UniProt entry, the sequences of proteins in these tests, tags left out.
UniProt Q13535: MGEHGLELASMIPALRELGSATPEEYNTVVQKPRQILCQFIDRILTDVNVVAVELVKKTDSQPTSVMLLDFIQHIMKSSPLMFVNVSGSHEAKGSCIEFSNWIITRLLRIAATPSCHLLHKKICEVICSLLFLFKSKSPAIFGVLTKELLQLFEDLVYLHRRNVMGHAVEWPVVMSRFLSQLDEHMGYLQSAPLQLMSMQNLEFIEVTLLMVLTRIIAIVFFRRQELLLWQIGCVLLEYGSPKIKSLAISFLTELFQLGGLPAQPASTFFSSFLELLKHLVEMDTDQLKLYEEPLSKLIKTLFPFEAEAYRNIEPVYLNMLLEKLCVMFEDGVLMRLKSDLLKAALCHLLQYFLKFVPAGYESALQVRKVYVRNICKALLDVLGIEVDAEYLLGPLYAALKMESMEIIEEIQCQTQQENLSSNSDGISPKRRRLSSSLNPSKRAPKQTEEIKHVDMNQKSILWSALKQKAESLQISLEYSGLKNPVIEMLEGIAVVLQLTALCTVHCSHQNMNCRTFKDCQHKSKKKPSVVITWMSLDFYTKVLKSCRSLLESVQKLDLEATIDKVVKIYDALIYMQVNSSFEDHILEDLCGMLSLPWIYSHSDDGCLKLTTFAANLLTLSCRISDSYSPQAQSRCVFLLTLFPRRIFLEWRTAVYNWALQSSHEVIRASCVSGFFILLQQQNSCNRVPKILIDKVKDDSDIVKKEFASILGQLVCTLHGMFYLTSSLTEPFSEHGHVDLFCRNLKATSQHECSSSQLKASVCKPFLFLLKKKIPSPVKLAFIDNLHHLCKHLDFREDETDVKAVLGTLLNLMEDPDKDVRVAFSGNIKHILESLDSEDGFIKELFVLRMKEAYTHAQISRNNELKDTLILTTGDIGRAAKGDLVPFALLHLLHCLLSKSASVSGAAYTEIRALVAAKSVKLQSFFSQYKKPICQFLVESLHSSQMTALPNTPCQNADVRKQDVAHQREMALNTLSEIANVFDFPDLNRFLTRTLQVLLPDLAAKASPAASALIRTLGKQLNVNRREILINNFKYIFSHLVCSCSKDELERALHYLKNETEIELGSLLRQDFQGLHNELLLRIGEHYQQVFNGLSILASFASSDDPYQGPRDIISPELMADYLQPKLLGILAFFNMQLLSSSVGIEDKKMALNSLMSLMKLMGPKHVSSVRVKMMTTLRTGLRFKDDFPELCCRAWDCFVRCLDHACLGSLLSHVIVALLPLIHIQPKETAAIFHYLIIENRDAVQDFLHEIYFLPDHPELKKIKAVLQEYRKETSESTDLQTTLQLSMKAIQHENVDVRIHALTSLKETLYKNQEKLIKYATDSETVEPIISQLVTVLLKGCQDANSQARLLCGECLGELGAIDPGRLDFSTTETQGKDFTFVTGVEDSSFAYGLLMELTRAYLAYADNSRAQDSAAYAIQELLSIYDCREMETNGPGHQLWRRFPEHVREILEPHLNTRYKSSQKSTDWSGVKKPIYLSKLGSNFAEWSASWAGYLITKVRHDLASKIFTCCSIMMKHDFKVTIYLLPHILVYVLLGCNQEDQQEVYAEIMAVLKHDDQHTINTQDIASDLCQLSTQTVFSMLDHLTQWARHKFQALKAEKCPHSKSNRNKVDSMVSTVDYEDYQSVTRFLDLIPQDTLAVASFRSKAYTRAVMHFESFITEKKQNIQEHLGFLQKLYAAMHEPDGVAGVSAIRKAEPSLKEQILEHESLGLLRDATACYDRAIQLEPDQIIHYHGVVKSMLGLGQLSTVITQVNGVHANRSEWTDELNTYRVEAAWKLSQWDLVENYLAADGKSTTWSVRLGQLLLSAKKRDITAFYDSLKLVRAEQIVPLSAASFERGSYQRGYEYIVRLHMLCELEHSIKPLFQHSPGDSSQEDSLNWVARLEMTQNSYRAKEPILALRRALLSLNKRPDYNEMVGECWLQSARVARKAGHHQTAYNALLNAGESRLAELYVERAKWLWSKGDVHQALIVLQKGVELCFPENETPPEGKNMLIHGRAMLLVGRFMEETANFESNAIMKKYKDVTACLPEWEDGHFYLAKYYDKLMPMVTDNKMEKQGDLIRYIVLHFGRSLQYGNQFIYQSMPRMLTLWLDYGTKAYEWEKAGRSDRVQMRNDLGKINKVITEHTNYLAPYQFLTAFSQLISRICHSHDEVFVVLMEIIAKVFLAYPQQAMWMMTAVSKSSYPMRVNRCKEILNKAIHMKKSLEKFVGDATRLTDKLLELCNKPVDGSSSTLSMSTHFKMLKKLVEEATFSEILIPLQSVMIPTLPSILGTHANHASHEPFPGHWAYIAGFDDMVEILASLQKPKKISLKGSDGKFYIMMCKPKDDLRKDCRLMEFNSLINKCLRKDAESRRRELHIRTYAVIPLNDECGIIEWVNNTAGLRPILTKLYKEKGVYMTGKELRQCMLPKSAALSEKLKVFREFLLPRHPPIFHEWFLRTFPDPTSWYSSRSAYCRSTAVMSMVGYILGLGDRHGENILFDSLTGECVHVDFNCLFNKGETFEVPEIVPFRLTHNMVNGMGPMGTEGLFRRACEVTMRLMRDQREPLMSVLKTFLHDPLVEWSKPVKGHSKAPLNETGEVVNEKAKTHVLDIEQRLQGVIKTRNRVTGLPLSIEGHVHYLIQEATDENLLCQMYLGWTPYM

Target: T1, Flag-DCAF13 (DDB1- and CUL4-associated factor 13) (UniProt Q9NV06)
T1 sequence: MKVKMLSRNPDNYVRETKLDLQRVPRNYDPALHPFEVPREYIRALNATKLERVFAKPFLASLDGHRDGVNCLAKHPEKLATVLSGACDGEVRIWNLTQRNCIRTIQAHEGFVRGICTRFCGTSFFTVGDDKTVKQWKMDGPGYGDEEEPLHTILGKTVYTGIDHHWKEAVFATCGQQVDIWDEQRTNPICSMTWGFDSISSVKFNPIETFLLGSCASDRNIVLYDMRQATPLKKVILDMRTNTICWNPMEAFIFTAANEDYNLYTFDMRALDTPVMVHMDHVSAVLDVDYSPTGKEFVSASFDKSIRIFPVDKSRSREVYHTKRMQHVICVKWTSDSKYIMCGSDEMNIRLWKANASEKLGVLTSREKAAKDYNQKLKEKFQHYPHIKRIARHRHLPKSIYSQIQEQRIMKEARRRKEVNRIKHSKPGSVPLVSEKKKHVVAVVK
Test: co-IP; Flag-co-IP-WB from FaDu cells with exogenous Flag-DCAF13, under hypoxia for 12 h; blots for ATR and P53

ATR (from UniProt Q13535 1-2644)
binding: binds
